# These are yes or no findings as the source states them, for the method shown. Binding seen in cells or lysates may run through a third protein. A result given as binding can be weak or reduced; the word gives no strength. Tags and fused reporters may be left off the sequences shown.
# T1: ARF7-HA (AUXIN RESPONSE FACTOR 7) (Arabidopsis thaliana) (UniProt P93022)
# T1 sequence: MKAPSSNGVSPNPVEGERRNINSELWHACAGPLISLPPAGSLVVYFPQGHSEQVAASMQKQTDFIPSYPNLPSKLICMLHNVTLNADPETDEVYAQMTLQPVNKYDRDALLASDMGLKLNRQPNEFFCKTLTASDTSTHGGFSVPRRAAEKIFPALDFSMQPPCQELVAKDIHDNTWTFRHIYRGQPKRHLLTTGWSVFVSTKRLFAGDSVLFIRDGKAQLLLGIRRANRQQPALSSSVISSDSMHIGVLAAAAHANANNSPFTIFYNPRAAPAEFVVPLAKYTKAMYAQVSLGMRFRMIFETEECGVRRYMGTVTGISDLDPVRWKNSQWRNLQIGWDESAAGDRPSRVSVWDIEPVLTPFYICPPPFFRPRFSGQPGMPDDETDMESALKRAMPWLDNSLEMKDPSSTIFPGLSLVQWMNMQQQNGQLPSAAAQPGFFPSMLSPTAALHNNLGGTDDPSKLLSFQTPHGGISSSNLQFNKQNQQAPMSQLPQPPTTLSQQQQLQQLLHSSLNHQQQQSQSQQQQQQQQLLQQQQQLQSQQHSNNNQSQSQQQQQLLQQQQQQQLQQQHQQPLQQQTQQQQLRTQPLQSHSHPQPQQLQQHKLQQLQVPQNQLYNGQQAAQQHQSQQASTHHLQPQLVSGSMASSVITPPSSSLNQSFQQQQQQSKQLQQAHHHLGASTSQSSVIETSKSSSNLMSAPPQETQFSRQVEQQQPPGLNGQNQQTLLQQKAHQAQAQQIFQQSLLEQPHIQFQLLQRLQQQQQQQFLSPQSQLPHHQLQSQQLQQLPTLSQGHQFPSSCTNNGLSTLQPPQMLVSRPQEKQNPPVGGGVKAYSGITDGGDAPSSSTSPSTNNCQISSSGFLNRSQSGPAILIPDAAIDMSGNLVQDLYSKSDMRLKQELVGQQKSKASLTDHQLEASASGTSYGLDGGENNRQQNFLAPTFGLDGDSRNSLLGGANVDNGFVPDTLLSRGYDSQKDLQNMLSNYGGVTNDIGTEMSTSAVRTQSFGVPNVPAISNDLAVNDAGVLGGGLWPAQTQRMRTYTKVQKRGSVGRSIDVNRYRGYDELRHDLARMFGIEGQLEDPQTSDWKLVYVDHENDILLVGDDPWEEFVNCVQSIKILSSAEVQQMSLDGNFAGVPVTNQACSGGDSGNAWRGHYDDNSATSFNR
# T2: ARF19 as BiFC fusions (nEYFP-ARF19 and cEYFP-ARF19) (Arabidopsis thaliana) (UniProt Q8RYC8)
# T2 sequence: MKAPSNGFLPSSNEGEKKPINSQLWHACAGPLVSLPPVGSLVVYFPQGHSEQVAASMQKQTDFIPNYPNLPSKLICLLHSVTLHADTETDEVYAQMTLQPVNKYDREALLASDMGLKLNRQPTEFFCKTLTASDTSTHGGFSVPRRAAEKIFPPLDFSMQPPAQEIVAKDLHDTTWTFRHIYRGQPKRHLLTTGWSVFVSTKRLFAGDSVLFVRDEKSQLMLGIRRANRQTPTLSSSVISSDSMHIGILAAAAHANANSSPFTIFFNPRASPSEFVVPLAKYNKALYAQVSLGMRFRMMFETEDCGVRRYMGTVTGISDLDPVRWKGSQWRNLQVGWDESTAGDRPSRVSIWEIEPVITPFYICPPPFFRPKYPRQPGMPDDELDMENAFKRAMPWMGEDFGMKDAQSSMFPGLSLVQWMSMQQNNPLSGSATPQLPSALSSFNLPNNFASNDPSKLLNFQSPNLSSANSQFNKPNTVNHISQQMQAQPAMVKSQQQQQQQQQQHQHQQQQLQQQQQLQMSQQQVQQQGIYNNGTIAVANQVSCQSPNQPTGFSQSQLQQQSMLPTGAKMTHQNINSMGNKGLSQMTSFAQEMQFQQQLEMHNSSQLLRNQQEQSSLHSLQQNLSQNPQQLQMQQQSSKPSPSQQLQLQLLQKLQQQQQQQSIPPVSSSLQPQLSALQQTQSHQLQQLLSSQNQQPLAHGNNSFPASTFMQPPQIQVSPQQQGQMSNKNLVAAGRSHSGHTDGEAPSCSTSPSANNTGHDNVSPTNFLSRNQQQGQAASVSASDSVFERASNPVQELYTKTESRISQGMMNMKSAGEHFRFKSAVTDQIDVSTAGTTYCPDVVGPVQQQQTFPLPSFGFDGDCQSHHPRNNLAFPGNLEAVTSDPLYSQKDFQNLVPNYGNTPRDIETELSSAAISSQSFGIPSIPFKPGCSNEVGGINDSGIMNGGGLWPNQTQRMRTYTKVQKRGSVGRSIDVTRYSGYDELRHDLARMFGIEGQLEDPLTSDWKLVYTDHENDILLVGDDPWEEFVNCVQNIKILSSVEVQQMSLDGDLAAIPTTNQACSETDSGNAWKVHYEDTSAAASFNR
# B1: YFP-ARF19 (AUXIN RESPONSE FACTOR 19) (protein, UniProt Q8RYC8 1-1086)
# chain: T2 sequence
# Columns and labels:
# [1] = biological target: T1, ARF7-HA (AUXIN RESPONSE FACTOR 7) (Arabidopsis thaliana); assay: co-IP; plant extract (1.0-2.0 mg protein) incubated with anti-GFP or anti-HA antibody, then Dynabeads Protein G and 2 μg GST, GST-AFF1 or GST-ΔF-box-AFF1 added for 2 hr at 4 °C; six washes; immunoblot with anti-GST; only the binder purified
# [2] = biological target: T2, ARF19 as BiFC fusions (nEYFP-ARF19 and cEYFP-ARF19) (Arabidopsis thaliana); assay: split reporter; BiFC with nEYFP and cEYFP fusions co-infiltrated with the p19 strain into 3-week-old Nicotiana benthamiana leaves, 22 °C, 3 d; confocal microscopy; nuclear marker WPP-mCherry
# [3] = biological target: GST-ΔF-box-AFF1 (Arabidopsis thaliana); assay: pull-down; 2 μg purified GST fusion immobilised on glutathione agarose, mixed with 1-2 mg total protein of arf19-1 35S:YFP-ARF19 plant lysate, 4 °C, 2 hr; six washes (PBS pH 7.4, 150 mM NaCl, 0.2% Triton X-100); immunoblot with anti-GFP and anti-GST; only the target purified
molecule,measurement,setting,value
GST-ΔF-box-AFF1 (Arabidopsis thaliana) (domain or fragment),binding,[1],binds
nEYFP-ΔF-box-AFF1 (Arabidopsis thaliana) (domain or fragment),binding,[2],binds
B1,binding,[3],binds
